The data set relates to POU2F2 (putative + adipocyte progenitor nuclear extract) (Homo sapiens). In words: EMSA. The note with it: 1 mM MgCl2, 50 mM NaCl, poly(dI-dC), 4 C, protein in an extract, label: Cy5 forward strand. (In general: A gel shift assay detects complexes by their altered migration in electrophoresis.)

Construct, isoform or probe ends are uncertain for at least one entry. Results from cells or extracts need not show a direct contact. The comparison behind a weaker result is the experiment's own reference, which may not be listed here.

On to “TTAATTTGCCTCATTCATCACATGCAATTCTGGCAAGGAA (double strand) [rs6712203 C allele probe]”, for which the binding result (T-to-C change alters binding, less than T allele, variant of rs6712203 T allele probe) is given as “binds more weakly”. Consider “TTAATTTGCCTCATTCATCATATGCAATTCTGGCAAGGAA (double strand) [rs6712203 T allele probe]”, for which the binding result (increased binding to T allele, POU2F2 identity suggested by motif and IGR analysis) is listed as “binds”.
